# PubChem BioAssay AID686938, Drosophila RNAi Screening Center, 2013
# Assay: 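Fly genes required for calcium entry once internal stores are emptied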 (primary screen)
# System: Drosophila S2R+ cells
# Knock-down reagent: long dsRNA against Drosophila genes, about 0.25 µg dsRNA per well, roughly 10,000 cells
# Timing: 5 days of knock-down before the calcium assay
# Challenge: thapsigargin (SERCA pump blocker) to empty calcium stores; entry signal taken 4 min after adding it
# Measured: 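Per-well fluo-4 fluorescence in two replicates, unnormalised, measured in resting cells and 4 min after store depletion by the SERCA blocker thapsigargin; ratio of the two present in few wells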
# Direction: calcium entry signal: higher = stronger calcium signal after store depletion; entry to resting ratio: higher = more calcium entry relative to resting level; resting calcium signal: higher = higher resting calcium signal
# Call rule: 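Hit if the duplicate-averaged plate z-score for entry over resting signal is under −3; wells with weak total dye signal (Fmax z < −2) or more than 5 off-targets removed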
# Calls: active = strongly reduced calcium entry; inactive = no strong reduction
# In all, the deposit lists about 23,000 reagents; shown is an unselected part of those with a known target gene and a result. In the full data, 75 (0.33%) were called active. 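Raw plate signals without normalisation; calls rest on plate z-scores that were not deposited; ratio present for only 364 wells.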 A number with no mark means an inactive call. Names joined by + are all predicted targets of the reagent. The record does not give: the dose of the treatment.
target gene,dsRNA,"calcium entry signal, replicate 1 (fluorescence units)","calcium entry signal, replicate 2 (fluorescence units)",entry to resting ratio,"resting calcium signal, replicate 1 (fluorescence units)","resting calcium signal, replicate 2 (fluorescence units)"
Tsp42Eh,DRSC06190,4.40e7,4.00e7,,2.03e7,1.68e7
lab,DRSC12627,4.23e7,3.18e7,,2.16e7,1.57e7
CG6040,DRSC15954,3.02e7,2.63e7,,1.40e7,1.19e7
NELF-B,DRSC17734,4.09e7,4.41e7,,2.03e7,2.05e7
CG7272,DRSC10795,3.05e7,5.18e7,,1.53e7,2.17e7
CG5214,DRSC15739,3.44e7,4.41e7,,1.72e7,2.06e7
CG5214,DRSC22842,3.05e7,4.47e7,,1.42e7,1.97e7
CG17994,DRSC04877,4.91e7,4.84e7,,2.31e7,2.35e7
CG14499,DRSC06470,5.06e7,4.20e7,,2.17e7,1.97e7
BORCS6,DRSC08514,3.75e7,4.20e7,,1.93e7,1.95e7
hay,DRSC11354,2.98e7,2.31e7,,2.39e7,1.06e7
DopEcR,DRSC08529,4.42e7,4.01e7,,3.01e7,1.74e7
peg,DRSC15216,5.53e7,4.21e7,,4.51e7,2.07e7
CG6966,DRSC16156,3.30e7,4.38e7,,1.59e7,7.83e7
ana1,DRSC16079,3.63e7,2.64e7,,1.66e7,1.23e7
ana1,DRSC21825,3.63e7,3.28e7,,1.89e7,1.53e7
nmdyn-D7,DRSC17016,3.69e7,3.42e7,,1.82e7,1.73e7
IKKepsilon,DRSC03550,4.99e7,5.59e7,,2.40e7,2.28e7
CG33777,DRSC08107,4.32e7,3.23e7,,2.29e7,1.56e7
yellow-f,DRSC15348,2.03e7,2.80e7,,1.05e7,4.70e7
Inx5,DRSC20051,5.09e7,4.85e7,,2.37e7,1.97e7
Lcp1,DRSC07455,5.73e7,4.04e7,,2.59e7,1.81e7
CG8813,DRSC00706,3.68e7,,,2.34e7,
rib,DRSC07021,2.84e7,2.80e7,,1.30e7,1.36e7
CG11226,DRSC11639,2.71e7,4.23e7,,1.35e7,1.93e7
CG11755,DRSC14374,3.56e7,3.41e7,,1.51e7,1.53e7
CG43123,DRSC05049,2.09e7,4.11e7,,1.19e7,1.74e7
CG11686,DRSC14350,2.44e7,4.74e7,,1.28e7,5.88e7
Zdhhc8,DRSC18044,4.21e7,5.71e7,,2.11e7,2.88e7
Zdhhc8,DRSC18122,4.29e7,5.07e7,,1.97e7,2.41e7
CG2854,DRSC18595,4.50e7,4.68e7,2.2,2.07e7,2.06e7
CG11961,DRSC06099,3.11e7,3.00e7,,1.47e7,1.55e7
CG1344,DRSC04837,3.79e7,,,1.94e7,
CG31820,DRSC21318,2.00e7,2.60e7,,1.09e7,1.21e7
CG14302,DRSC14781,3.45e7,4.39e7,,5.47e7,1.90e7
dod,DRSC20577,5.25e7,4.20e7,,2.28e7,1.66e7
CG42714,DRSC08798,4.67e7,3.31e7,,2.76e7,1.49e7
CG17803,DRSC15275,3.37e7,4.98e7,,4.03e7,2.52e7
CG17803,DRSC22811,2.47e7,4.49e7,,1.36e7,1.92e7
CG7600,DRSC09681,4.66e7,2.89e7,,2.85e7,1.37e7
CG3156,DRSC18503,3.39e7,4.58e7,,1.66e7,2.09e7
O-fut1,DRSC06138,4.69e7,4.09e7,,1.92e7,1.95e7
boil,DRSC17872,3.60e7,3.93e7,,1.73e7,1.80e7
CG30091,DRSC21809,3.39e7,3.49e7,,1.92e7,1.62e7
eIF2alpha,DRSC20327,2.15e7,1.64e7,,1.28e7,9.50e6
Smox,DRSC18716,2.54e7,3.41e7,,1.33e7,1.62e7
CG32548,DRSC19627,3.95e7,3.56e7,,1.95e7,1.59e7
CG32548,DRSC19982,5.34e7,4.69e7,,2.32e7,2.10e7
msl-1,DRSC03573,2.32e7,3.05e7,,1.24e7,1.53e7
CG13306,DRSC09976,3.56e7,4.95e7,,1.63e7,2.12e7
dnc,DRSC17758,4.15e7,5.78e7,2,2.07e7,2.58e7
dnc,DRSC17759,3.88e7,5.78e7,2.1,1.84e7,2.26e7
dnc,DRSC17911,3.67e7,5.38e7,2,1.82e7,2.24e7
dnc,DRSC18763,4.25e7,5.68e7,1.9,2.25e7,2.58e7
dnc,DRSC18764,5.30e7,5.36e7,2.2,2.38e7,1.95e7
Rab9D + Rab9Fa + Rab9E,DRSC19853,4.05e7,4.75e7,,1.91e7,2.02e7
Sf3b3,DRSC08370,1.24e7 (active),1.69e7,,8.58e6,1.13e7
CG11529,DRSC09839,2.73e7,3.72e7,,1.54e7,1.74e7

6 entries from above, reduced to “calcium entry signal, replicate 2 (fluorescence units)”.
boil [DRSC17872]: 3.93e7
CG30091 [DRSC21809]: 3.49e7
eIF2alpha [DRSC20327]: 1.64e7
Smox [DRSC18716]: 3.41e7
CG32548 [DRSC19627]: 3.56e7
CG32548 [DRSC19982]: 4.69e7
